Article doi:10.1101/2022.03.04.482790
Numbering of substitutions follows the chain as printed. Names may count otherwise. These are yes or no findings as the source states them, for the method shown. For some assays here: Binding calls can cover weak binding; strength is not graded here. For some assays here: Where a sequence is shown, tags or fusion partners need not be part of it. One block for each molecule: values may come before it.

Protein sequences, listed by entry. Tags and fused reporters are not part of them. Lines headed by an entry give the natural chain unless they say otherwise; changes in a name come on top.
UniProt A8DY81: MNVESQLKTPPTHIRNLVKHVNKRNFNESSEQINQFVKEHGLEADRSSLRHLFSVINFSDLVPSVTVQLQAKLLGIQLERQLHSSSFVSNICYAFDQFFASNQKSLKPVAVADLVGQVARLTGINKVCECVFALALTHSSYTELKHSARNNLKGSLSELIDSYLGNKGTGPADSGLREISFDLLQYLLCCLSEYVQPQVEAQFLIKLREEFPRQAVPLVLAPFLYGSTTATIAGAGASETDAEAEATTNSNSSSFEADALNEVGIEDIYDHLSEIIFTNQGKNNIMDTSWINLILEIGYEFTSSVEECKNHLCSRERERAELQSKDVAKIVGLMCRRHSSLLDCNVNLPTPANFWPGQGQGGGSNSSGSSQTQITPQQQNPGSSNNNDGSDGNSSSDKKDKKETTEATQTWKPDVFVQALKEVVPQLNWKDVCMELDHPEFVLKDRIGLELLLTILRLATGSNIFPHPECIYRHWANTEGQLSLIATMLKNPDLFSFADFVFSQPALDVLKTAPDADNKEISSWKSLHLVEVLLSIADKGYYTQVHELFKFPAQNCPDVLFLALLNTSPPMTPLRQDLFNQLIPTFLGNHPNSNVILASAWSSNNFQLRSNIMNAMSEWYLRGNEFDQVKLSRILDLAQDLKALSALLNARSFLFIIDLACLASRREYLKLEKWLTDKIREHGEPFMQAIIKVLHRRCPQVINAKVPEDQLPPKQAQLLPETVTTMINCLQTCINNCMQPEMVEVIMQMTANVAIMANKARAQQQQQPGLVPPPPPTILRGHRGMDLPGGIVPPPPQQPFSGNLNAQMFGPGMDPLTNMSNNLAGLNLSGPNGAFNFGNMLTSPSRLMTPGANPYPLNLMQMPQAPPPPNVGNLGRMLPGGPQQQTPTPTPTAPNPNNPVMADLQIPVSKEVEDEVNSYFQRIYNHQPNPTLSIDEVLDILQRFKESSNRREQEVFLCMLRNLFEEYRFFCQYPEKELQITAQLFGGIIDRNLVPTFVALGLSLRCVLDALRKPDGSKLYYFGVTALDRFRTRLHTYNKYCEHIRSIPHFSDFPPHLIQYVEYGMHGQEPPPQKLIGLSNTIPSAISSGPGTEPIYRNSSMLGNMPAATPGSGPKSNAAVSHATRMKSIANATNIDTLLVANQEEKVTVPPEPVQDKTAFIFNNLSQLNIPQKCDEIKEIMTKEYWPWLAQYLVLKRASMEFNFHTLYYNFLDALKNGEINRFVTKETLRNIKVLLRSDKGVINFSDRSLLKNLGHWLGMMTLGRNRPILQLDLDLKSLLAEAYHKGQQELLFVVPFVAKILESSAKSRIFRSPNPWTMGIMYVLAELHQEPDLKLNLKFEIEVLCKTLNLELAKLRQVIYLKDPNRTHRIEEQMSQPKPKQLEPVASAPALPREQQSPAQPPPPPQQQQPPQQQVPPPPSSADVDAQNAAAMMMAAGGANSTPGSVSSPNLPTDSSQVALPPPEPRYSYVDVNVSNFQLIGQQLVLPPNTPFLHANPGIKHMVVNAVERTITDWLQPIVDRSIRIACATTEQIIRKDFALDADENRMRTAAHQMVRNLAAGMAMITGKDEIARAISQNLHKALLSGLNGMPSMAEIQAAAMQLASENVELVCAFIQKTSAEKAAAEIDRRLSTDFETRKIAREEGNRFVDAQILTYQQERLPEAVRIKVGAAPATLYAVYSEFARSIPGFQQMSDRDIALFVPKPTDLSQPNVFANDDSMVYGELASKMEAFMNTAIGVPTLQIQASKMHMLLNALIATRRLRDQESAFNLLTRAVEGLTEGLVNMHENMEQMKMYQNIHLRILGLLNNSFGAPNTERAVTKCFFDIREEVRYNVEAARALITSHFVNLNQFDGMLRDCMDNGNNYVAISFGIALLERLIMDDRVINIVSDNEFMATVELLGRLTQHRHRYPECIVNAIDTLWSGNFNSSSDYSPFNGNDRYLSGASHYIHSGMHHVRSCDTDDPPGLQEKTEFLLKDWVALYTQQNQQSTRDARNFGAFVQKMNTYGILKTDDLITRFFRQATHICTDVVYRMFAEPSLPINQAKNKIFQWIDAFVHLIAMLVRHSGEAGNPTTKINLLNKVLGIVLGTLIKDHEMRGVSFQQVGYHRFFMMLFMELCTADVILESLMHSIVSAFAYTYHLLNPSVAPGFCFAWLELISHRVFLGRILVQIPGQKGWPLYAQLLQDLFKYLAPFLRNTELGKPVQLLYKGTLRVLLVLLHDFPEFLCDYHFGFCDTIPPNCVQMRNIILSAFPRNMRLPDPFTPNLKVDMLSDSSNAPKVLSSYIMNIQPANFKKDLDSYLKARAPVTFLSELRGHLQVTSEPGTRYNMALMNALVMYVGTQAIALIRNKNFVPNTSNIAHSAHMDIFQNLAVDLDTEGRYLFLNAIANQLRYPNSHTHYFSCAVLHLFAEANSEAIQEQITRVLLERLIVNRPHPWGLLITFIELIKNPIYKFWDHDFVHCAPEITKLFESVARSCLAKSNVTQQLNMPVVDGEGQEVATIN
UniProt A0A0B4KEC4: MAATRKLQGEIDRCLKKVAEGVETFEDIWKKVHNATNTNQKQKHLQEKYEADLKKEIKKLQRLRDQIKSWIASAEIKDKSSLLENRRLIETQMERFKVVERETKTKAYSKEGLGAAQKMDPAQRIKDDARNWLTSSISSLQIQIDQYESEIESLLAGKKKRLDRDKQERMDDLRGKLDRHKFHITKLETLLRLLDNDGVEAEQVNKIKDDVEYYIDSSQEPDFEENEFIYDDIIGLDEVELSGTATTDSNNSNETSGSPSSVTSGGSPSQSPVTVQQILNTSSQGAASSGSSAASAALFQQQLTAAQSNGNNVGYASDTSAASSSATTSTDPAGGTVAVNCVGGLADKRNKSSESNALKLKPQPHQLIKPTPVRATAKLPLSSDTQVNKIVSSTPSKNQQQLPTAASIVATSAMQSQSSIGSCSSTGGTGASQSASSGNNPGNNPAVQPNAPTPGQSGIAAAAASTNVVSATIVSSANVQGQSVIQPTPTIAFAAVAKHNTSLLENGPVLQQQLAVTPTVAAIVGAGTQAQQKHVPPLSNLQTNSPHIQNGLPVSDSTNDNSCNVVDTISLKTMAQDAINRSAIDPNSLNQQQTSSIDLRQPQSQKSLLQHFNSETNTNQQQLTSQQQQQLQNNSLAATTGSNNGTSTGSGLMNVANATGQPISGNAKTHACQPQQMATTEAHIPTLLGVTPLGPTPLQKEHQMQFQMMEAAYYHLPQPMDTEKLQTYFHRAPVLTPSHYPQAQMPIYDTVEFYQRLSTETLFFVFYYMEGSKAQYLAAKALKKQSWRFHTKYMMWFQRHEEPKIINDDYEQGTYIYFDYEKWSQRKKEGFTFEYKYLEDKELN

Experiments:
[1] = biological target: NOT1 (subunit of the Drosophila CCR4-NOT core complex) (Drosophila) (UniProt A8DY81); assay: ReLo
[2] = biological target: T1, NOT2 (subunit of the Drosophila CCR4-NOT core complex) (Drosophila) (UniProt Q94547); assay: ReLo
T1 sequence: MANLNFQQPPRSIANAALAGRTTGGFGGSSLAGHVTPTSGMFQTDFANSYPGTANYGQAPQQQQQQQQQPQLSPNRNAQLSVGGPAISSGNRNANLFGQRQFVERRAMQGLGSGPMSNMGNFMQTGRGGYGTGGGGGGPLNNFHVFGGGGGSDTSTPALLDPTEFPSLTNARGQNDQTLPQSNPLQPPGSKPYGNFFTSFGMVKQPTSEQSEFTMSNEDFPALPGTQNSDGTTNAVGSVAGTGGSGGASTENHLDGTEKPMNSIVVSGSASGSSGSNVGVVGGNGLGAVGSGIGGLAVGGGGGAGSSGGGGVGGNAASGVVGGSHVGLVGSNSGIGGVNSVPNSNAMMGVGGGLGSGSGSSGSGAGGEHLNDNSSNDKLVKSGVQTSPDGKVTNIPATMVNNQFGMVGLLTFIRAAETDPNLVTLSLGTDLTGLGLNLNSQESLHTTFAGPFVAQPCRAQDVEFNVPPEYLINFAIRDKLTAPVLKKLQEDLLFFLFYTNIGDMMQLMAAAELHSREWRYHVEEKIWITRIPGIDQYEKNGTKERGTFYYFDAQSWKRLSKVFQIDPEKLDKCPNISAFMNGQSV

[3] = biological target: CAF40 (subunit of the Drosophila CCR4-NOT core complex) (Drosophila); assay: ReLo
[4] = biological target: CCR4 (subunit of the Drosophila CCR4-NOT core complex) (Drosophila); assay: ReLo
[5] = biological target: NOT3 (subunit of the Drosophila CCR4-NOT core complex) (Drosophila); assay: ReLo
[6] = biological target: CAF1 (subunit of the Drosophila CCR4-NOT core complex) (Drosophila); assay: ReLo
[7] = biological target: CAF40 V186E (CAF40 MUT) (Drosophila); assay: ReLo
[8] = biological target: NOT3, split-ubiquitin yeast two-hybrid fusion (Drosophila); assay: two-hybrid

binding [2]: no binding
Molecule: CCR4 (subunit of the Drosophila CCR4-NOT core complex)

binding [2]: no binding
Molecule: CAF40 (subunit of the Drosophila CCR4-NOT core complex)

binding [2]: no binding
Molecule: Drosophila Roquin

binding [3]: binds | binding [4]: no binding | binding [5]: no binding | binding [6]: no binding | binding [7]: no binding
B2: Drosophila Bag-of-marbles (Bam) (protein, UniProt P22745 1-442)
chain: MLNARDVCPEGNDDQQLDHNFKQMEEHLALMVEGNENEDPRKATCEYEDTNEDGATCTSGVLSEIQENFGRLRLCDVTAPLLEFHGLDCLQQIQKRSRHFAFDGSPAKKSRSGGVLVTGPKQKQLQKENVWNRKSKGSASADNIEKLPITIEKLHMIGLHGDCLEHNAVLRLMNLFRSLHDHLTADLGFSRQNSMPSDYLFDMPVKSTMPKSLNVRYQLQVLCTKVERFLVQQRRTLEANRHFDFEKYDECDKLLKGFASYLDNFKLLLKPKMRNRNGNSGSNADKFHTQRMERLLIGLRDWIKAAHLSVHVFNWEMDLEHRYSGAMTESHKSLNERAILLSGAELRAAEARGISAEDLFIAQRYKLGGPIYCVLEQHEFLSALIANPETYFPPSVVAICGPQKLGAVSMEQPSASEEEFEETEEVPSSPPRHTGRVPRFRS

binding [3]: no binding
B3: Bam M24E (Bam MUT) (protein, UniProt P22745 1-442)
chain: B2 chain with M24E

binding [5]: binds
B4: NOT2 (subunit of the Drosophila CCR4-NOT core complex) (protein, UniProt Q94547 1-585)
chain: T1 sequence

More lines, now with the values behind:

Molecule: NOT3 (subunit of the Drosophila CCR4-NOT core complex) (from UniProt A0A0B4KEC4)
binding [1]: binds

B1: Drosophila Cup (protein, UniProt Q9VMA3 1-1117)
chain: MQMAEAEQENGAGALKIATNAGATDRPAHQQLPLPVEDQQDEVLTPAEKGKFEYPPPPPPPTPVQAPLATKATALNASQEHDDDEANSEKWEDPCAPPPPPPLPTSAFLATGLGYLKLPAFKLKDALEKAITKLEANKRTLKASPESSRSIKNKNVVALEMLPRRSNPETIGDGSMLASTSTAVMLQTKKPAVIVEMERRCKIINLLAKQNQILESISGEAIPMHGPSKHLHEDEGLTLQVLSARASTPYTQPSSMLSCTAVSCDLEHDSPRKQVASKEAVPEQQSSQVQQKRPPSTGIHKPGSLRAPKAVRPTTAPVVSSKPVKSYTRSRLMDIRNGMFNALMHRSKESFVMPRIATCDDIELEGRLRRMNIWRTSDGTRFRTRSTTANLNMNNNNNNECMPAFFKNKNKPNLISDESIIQSQPPQPQTEFQDPAIVNQRRIGSGRLNHSKWGYNDEDYHSYHNGKSQHMEEVNSKNSKNMTVLQFFDNGEISSQPQRRPNTPVMGMSINRSENDTLHSNESSEDLSRANENYVKRVMSGFLVVSKPKSRDVEDRHHRRYRNQNEEPEWFSCGPTSRLDTIELCGFDEDEEKMLKEGNKNHGLGETERETSKQKMDHKYKWTHAEPMGRSKYMPKHDTNNNHNVENMNNVMATEHQQQKEEKRPGSGRSFQFDKFNQSQQNYESSSYVNHQQPPQTQPQQMQQQSNTNTNNSKFMSFFANEGNSSSSSLNEFFKQAINQGHGNNPEQPKSLGHIGQMPSVDQLEAKWRRNSLNNVGETANKQTDNFQKLIGSLSSAKPQSQAVGYDAISNFIMQQQQYQQQQQKQHLIIQQQQQHTAFLASLQLKAILGRADTQLLLLRLTKGEISKHGLLVQLANPRLTDMDREAITAVLQFTNTQQQQQQHKQQLDMLSSTVIASQLQNLHNLAIVQQTLAARQQPQHNPQTQAPHQLSQEDLQAHANVIMRNAVMKRKIEEQTSKLINGGAKHQAQQQYLNRGQQRQARPDANSNALLHALISGGGNNHASGYPMNGQPQKHHSNLRFGDNQNFQSFESNQPHFATQYKQQYQQSQQQHPHQQPQQLNSLHQNNAGAVNSFNKAQMQAQSAISMLPNSGDEFH
binding [3]: no binding | binding [4]: no binding | binding [5]: no binding | binding [6]: no binding

B5: NOT2, split-ubiquitin yeast two-hybrid fusion (protein, UniProt Q94547 1-585)
chain: T1 sequence
binding [8]: binds

B6: Drosophila Nanos (protein, UniProt P25724 1-401)
chain: MFRSNLEGSGAAAVGVANPPSLAQSGKIFQLQDNFSAFHARGGLNILGLQDMYLDTSGANSSATLSPPITPVTPDPSTSAQSTHFPFLADSAATANSLLMQRQYHYHLLLQQQQQLAMAQHQLALAASAAAASASHQQTDEIARSLKIFAQVTTGAAENAAGSMQDVMQEFATNGYASDDLGRMSYGSAPPQVQMPPQQQHQQQQGLHLPLGRNPAQLQTNGGNLMPIPLATHWLNNYREHLNNVWRNMSYIPAAPNTMGLQAQTAATVSTNLGVGMGLGLPVQGEQLRGASNSSNNNNNNNKVYKRYNSKAKEISRHCVFCENNNEPEAVINSHSVRDNFNRVLCPKLRTYVCPICGASGDSAHTIKYCPKKPIITMEDAIKAESFRLAKSSYYKQQMKV
binding [3]: binds | binding [5]: no binding | binding [7]: no binding

B7: Nanos Δ140-160 (deletion of the CAF40-binding α-helix) (protein, UniProt P25724)
chain: MFRSNLEGSGAAAVGVANPPSLAQSGKIFQLQDNFSAFHARGGLNILGLQDMYLDTSGANSSATLSPPITPVTPDPSTSAQSTHFPFLADSAATANSLLMQRQYHYHLLLQQQQQLAMAQHQLALAASAAAASASHQQTAGSMQDVMQEFATNGYASDDLGRMSYGSAPPQVQMPPQQQHQQQQGLHLPLGRNPAQLQTNGGNLMPIPLATHWLNNYREHLNNVWRNMSYIPAAPNTMGLQAQTAATVSTNLGVGMGLGLPVQGEQLRGASNSSNNNNNNNKVYKRYNSKAKEISRHCVFCENNNEPEAVINSHSVRDNFNRVLCPKLRTYVCPICGASGDSAHTIKYCPKKPIITMEDAIKAESFRLAKSSYYKQQMKV
binding [3]: no binding
